Laboratory results reported in PubChem BioAssay AID1487 (National Center for Advancing Translational Sciences (NCATS), 2009).
Some of the results follow. The main result of the screen is listed elsewhere. These columns were measured beside it and carry no call. The list favours compounds with an active or inconclusive main result. Potencies come from curve fits of mixed quality, noted in brackets.

Assay: qHTS Assay for Modulators of Lamin A Splicing
Conditions: HeLa LMNA splicing GFP/RFP minigene ratio, 48 h
Method in brief: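 S3 HeLa stable clones carrying a lamin A-EGFP splicing minigene plus DsRed2 were seeded at 600 cells/well in Opti-MEM with 2% FBS, pin-dosed and incubated 48 h at 37°C. Acumen cytometry (488 nm) gave the GFP/RFP total-intensity ratio.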

[1] = measured here: RFP viability control channel
[2] = measured here: GFP splicing reporter channel

| SMILES | AC50 [1] | AC50 [2] |
| --- | --- | --- |
| CCCNS(=O)(=O)c1ccc(NC(=O)Cc2cccs2)cc1 | 35.5 µM [rising, single point] |  |
| COc1ccc(Cc2nc3ccc(C(=O)NCc4ccccc4C)cc3o2)cc1 |  | 0.794 µM [falling, full curve, poor fit] |
| CCC(CC)C(=O)Nc1ccc2nc(SCC(=O)N3CCCC3)sc2c1 | 0.00447 µM [rising, full curve, poor fit] |  |
| CCc1cccc(C)c1NC(=O)c1cc(S(=O)(=O)N(Cc2ccc(C(=O)OC)cc2)Cc2ccc(OC)c(OC)c2)ccc1F | 5.62 µM [rising, full curve, poor fit] |  |
| O=C(NN1CCCCC1)c1cccc(COc2ccc(Cl)cc2)c1 |  | 35.5 µM [rising, single point] |
| Fc1cccc2sc(Nc3nc4c(F)cccc4s3)nc12 | 7.94 µM [rising, partial curve] |  |
| Cc1ccc(-n2nnnc2SCC(=O)Nc2ccccc2-c2ccccc2)cc1C | 31.6 µM [rising, single point] |  |
| O=C1Oc2ccccc2C(=O)/C1=C\N1CCN(c2ccccc2)CC1 | 0.0251 µM [rising, full curve, poor fit] | 0.0282 µM [rising, full curve, poor fit] |
| CCN(CC)c1nc2ccccc2nc1C(=O)Nc1ccc(C(C)=O)cc1 | 22.4 µM [rising, partial curve, poor fit] | 1.12 µM [rising, partial curve, poor fit] |
| COc1cc(Br)cc(/C=N/c2ncn[nH]2)c1O |  | 35.5 µM [falling, single point] |
| O=C(COC(=O)c1cccc(S(=O)(=O)NCc2ccccc2)c1)c1ccccc1 | 12.6 µM [rising, partial curve] | 4.47 µM [rising, full curve] |
| Cc1nn(Cc2cccc(F)c2)c(C)c1NC(=O)c1ccc(COc2ccccc2Cl)cc1 | 35.5 µM [rising, single point] |  |
| COc1ccccc1NC(=O)CN1CCN(CC(=O)Nc2ccc(Cl)c(C(F)(F)F)c2)CC1 | 22.4 µM [falling, partial curve] | 20 µM [falling, partial curve] |
| CCN(CC)Cc1nc2sc(C)c(C)c2c(=O)[nH]1 | 20 µM [rising, single point] | 15.8 µM [rising, single point] |
| Cc1nn(-c2ccccc2)c2c1C(c1ccc(O)c(O)c1)N1C(=N2)C(Nc2ccccc2)=Nc2ccccc21 (stereo unspecified) | 0.0316 µM [falling, single point] | 7.94 µM [falling, single point] |
| Cc1nnsc1C(=O)N/N=C/c1ccc(OC(F)(F)F)cc1 |  | 2.51 µM [rising, partial curve] |
| COC(=O)c1c(NC(=O)COC(=O)[C@@H](NS(=O)(=O)c2cccc(Cl)c2)C(C)C)sc2c1CCC2 |  | 11.2 µM [rising, partial curve] |
| Clc1ccccc1C1=Nn2c(nnc2-c2ccncc2)SC1 | 11.2 µM [rising, single point] |  |
| O=C(Nc1ccncc1)c1cc(-c2ccccn2)nc2ccc(Br)cc12 | 12.6 µM [falling, partial curve, poor fit] |  |

Some values from the entries so far.
AC50 [1] with Cc1nn(Cc2cccc(F)c2)c(C)c1NC(=O)c1ccc(COc2ccccc2Cl)cc1 reads 35.5 µM [rising, single point]
AC50 [1] with O=C(COC(=O)c1cccc(S(=O)(=O)NCc2ccccc2)c1)c1ccccc1 reads 12.6 µM [rising, partial curve]
AC50 [1] with CCC(CC)C(=O)Nc1ccc2nc(SCC(=O)N3CCCC3)sc2c1 reads 0.00447 µM [rising, full curve, poor fit]
AC50 [2] with COC(=O)c1c(NC(=O)COC(=O)[C@@H](NS(=O)(=O)c2cccc(Cl)c2)C(C)C)sc2c1CCC2 reads 11.2 µM [rising, partial curve]

Going on with the list.

| SMILES | AC50 [1] | AC50 [2] |
| --- | --- | --- |
| Cc1ccc(-c2nc(C)c(CCNC(=O)c3cccs3)s2)cc1 | 22.4 µM [falling, partial curve, poor fit] |  |
| COC(=O)c1ccc(NC(=O)CCN2CCN(CCC(=O)Nc3ccc(C(=O)OC)cc3)CC2)cc1 | 25.1 µM [rising, single point] | 35.5 µM [rising, single point] |
| O=C(N/N=C/c1ccncc1)c1cccc([N+](=O)[O-])c1 | 1.58 µM [rising, full curve] |  |
| Cc1nc2ccccc2cc1OCc1ccc(Cl)cc1 | 3.55 µM [rising, partial curve] |  |
| CC(C)(C)CC(=O)O/N=C(\N)c1ccncc1 | 5.62 µM [rising, single point] |  |
| Cc1cnc(CNc2ncncc2-c2ccc3c(c2)OCO3)cn1 | 35.5 µM [falling, single point] | 35.5 µM [falling, single point] |
| COc1ccc(CNc2ncnc3ccc(-c4ccc(N(C)C)cc4)cc23)c(OC)c1 | 7.94 µM [falling, partial curve] | 7.08 µM [falling, partial curve] |
| CSc1ccc(OC2CCCCC2NS(=O)(=O)c2ccc(Cl)cc2)cc1 (stereo unspecified) | 31.6 µM [rising, single point] | 31.6 µM [rising, single point] |
| O=C(CSc1nnc2c(n1)[nH]c1ccccc12)Nc1ccc(N2CCOCC2)cc1 | 8.91 µM [falling, partial curve, poor fit] | 0.1 µM [falling, full curve, poor fit] |
| c1ccc2c(c1)COC(CNC1CCCCC1)OC2 | 3.98 µM [falling, full curve, poor fit] |  |
| CCOC(=O)c1cccc(NC(=O)Cn2cc3c(n2)CCC(C)C3)c1 (stereo unspecified) | 15.8 µM [rising, partial curve] | 17.8 µM [rising, single point] |
| CC(=O)Nc1ccc2nc(CN3CCN(Cc4ccc(F)cc4)C(CCO)C3)ccc2c1 (stereo unspecified) | 0.126 µM [falling, full curve, poor fit] | 0.398 µM [falling, full curve, poor fit] |
| CCc1cccc(NC(=O)c2cc3c(=O)n(Cc4ccccc4)ccc3nc2C)c1 | 12.6 µM [rising, single point] |  |
| O=C(c1cc2nc(-c3ccccc3)cc(-c3ccccc3)n2n1)N1CCN(C(=O)c2ccco2)CC1 | 14.1 µM [rising, partial curve] |  |
| CCOc1ccc(-c2c[n+]3c(n2-c2ccccc2)CCCCC3)cc1 | 2 µM [rising, partial curve] |  |
| Cc1noc(C)c1CSCC(=O)Nc1nc2ccc(Oc3ccccc3)cc2s1 | 31.6 µM [rising, single point] |  |
| CCC(=O)N1CCc2cc(CNS(=O)(=O)c3cc(OC)ccc3OC)ccc21 | 0.0224 µM [rising, full curve, poor fit] | 0.0282 µM [rising, full curve, poor fit] |
| O=C(CSc1nnc(Cn2cnc3ccccc32)o1)c1ccccc1 | 22.4 µM [rising, single point] |  |
| COc1ccc2cc3cc(C(=O)NCCN4CCc5ccccc5C4)sc3nc2c1 | 7.08 µM [rising, partial curve] |  |

| SMILES | AC50 [1] | AC50 [2] |
| --- | --- | --- |
| CCOC(=O)N/N=C/c1c(C)nn(-c2cccc(C(F)(F)F)c2)c1Cl | 5.62 µM [rising, single point] |  |
| CCOc1ccc(CN2CCN(C(=O)c3ccccc3)CC2)cc1 | 15.8 µM [rising, partial curve] | 10 µM [rising, partial curve, poor fit] |
| COc1cc(OC)cc(C(=O)NC(=S)NNC(=O)c2cnccn2)c1 | 3.55 µM [rising, full curve, poor fit] |  |
| Cc1ccc(CNC(=O)C23CN(Cc4ccccc4)CC2C(c2ccc([N+](=O)[O-])cc2)=NO3)o1 (stereo unspecified) | 35.5 µM [rising, single point] | 31.6 µM [rising, single point] |
| COc1ccc(C(=O)NC(=S)N(CCC(C)C)c2c(N)n(Cc3ccccc3)c(=O)[nH]c2=O)cc1 | 22.4 µM [rising, single point] |  |
| CCOC(=O)C1=C(C)NC2=C(C1c1ccc([N+](=O)[O-])cc1)S(=O)(=O)c1ccccc12 (stereo unspecified) | 5.62 µM [rising, single point] |  |
| Cc1ccc(C(=O)N/C(=C/c2ccco2)C(=O)NC2CCS(=O)(=O)C2)cc1 (stereo unspecified) |  | 0.112 µM [rising, full curve, poor fit] |
| COc1cccc(C2=CC(c3cc(OC)ccc3OC)n3nnnc3N2)c1 (stereo unspecified) |  | 35.5 µM [falling, single point] |
| CCCCc1cc2c(s1)CCCC/C2=N/O | 31.6 µM [rising, single point] | 31.6 µM [rising, single point] |
| COc1ccc2[nH]c3c(c2c1)CCNC3C1CC=C(C)CC1 (stereo unspecified) |  | 0.112 µM [rising, full curve] |
| Cc1ccc(C)c(NC(=S)NNC(=O)c2csc3c2CCC(C)C3)c1 (stereo unspecified) | 25.1 µM [rising, partial curve] | 20 µM [rising, partial curve] |
| CC(=O)Oc1ccc(N2C(=O)C3C(C2=O)C2(C)C=CC3(C)O2)cc1 (stereo unspecified) | 22.4 µM [rising, single point] |  |
| COc1ccc(CCN2C(=O)c3ccncc3C2=O)cc1OC | 6.31 µM [falling, single point] |  |
| O=C(Cn1ccnc1[N+](=O)[O-])NCCO | 14.1 µM [falling, single point] | 6.31 µM [falling, single point] |
| OCCN1CCN(c2ncnc3sc(-c4ccccc4)cc23)CC1 |  | 35.5 µM [falling, partial curve, poor fit] |
| Cc1ccc(OCc2nc(-c3ccccc3)no2)c(C)c1 | 0.01 µM [rising, full curve, poor fit] |  |
| O=C(c1cccnc1)N1CCN(S(=O)(=O)c2ccc(Cl)cc2)CC1 | 7.08 µM [rising, partial curve, poor fit] |  |
| CCOc1ccc(NC(=O)c2c(Nc3ccccc3C)sc(C(=O)c3ccccc3)c2N)cc1 | 31.6 µM [rising, single point] | 35.5 µM [rising, single point] |
